The exact form of at least one protein or probe is not confirmed. Where cells or extracts were used, other partners may take part. Weaker means in comparison with the reference protein, sequence or condition of that experiment.

Amino acid sequences for entries named in this document (tags omitted). Residues count along the entry.
UniProt P26368, 2-475: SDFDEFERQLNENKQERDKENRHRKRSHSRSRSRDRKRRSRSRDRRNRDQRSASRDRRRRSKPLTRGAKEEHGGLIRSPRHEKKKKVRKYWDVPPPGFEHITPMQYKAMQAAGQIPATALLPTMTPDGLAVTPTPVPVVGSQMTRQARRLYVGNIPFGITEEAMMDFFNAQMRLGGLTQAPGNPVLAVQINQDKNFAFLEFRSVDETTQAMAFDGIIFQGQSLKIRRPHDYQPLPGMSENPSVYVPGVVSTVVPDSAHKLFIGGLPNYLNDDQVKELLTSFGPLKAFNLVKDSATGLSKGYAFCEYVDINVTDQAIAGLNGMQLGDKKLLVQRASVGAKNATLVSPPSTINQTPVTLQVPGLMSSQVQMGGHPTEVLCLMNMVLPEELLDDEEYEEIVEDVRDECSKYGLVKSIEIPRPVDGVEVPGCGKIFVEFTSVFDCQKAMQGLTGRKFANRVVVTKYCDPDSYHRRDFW

In this data set the target is U2AF65 (Homo sapiens) (UniProt P26368). Briefly: pull-down. As to conditions: very weak binding if any to the retention target; protein in an extract; protein details: endogenous, HeLa nuclear extract.

For “CAGGCCCCAGCUCUGCAG [CD5 RNA (antisense target sequence)]”, the binding result is given as “binds more weakly”.

The values above are taken from patent US20160017322.
